# Experimental data reported in the supplement of paper PMC8728848.
# The list shows a part of the results.
# What was measured:
# Assay in all cases: glycan array binding signal (z-score within array); higher = stronger binding
# Details in all cases: glycan notation: IUPAC condensed, linker removed
# [1] = target: Gal3S(b1-3)[Fuc(a1-4)]GlcNAc
# In short: (§1)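 Negative Z-scores can be read as non-binding. The Z-score is calculated within each array and then averaged across arrays of one protein sequence at different concentrations or buffers and across linkers. Arrays, 3228 in all, were curated from the Consortium for Functional Glycomics database and kept only where the protein sequence was available.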
# [2] = target: Gal3S(b1-4)Glc
# In short: as §1
# [3] = target: Gal3S(b1-4)Glc6S
# In short: as §1
# [4] = target: Gal3S(b1-4)GlcNAc
# In short: as §1
# [5] = target: Gal3S(b1-4)GlcNAc6S
# In short: as §1
# [6] = target: Gal3S(b1-4)[Fuc(a1-3)]Glc
# In short: as §1
# [7] = target: Gal3S(b1-4)[Fuc(a1-3)]Glc6S
# In short: as §1
# [8] = target: Gal3S4S(b1-4)GlcNAc
# In short: as §1
# [9] = target: Gal3S6S(b1-4)GlcNAc
# In short: as §1
# [10] = target: Gal3S6S(b1-4)GlcNAc6S
# In short: as §1
# [11] = target: Gal4S(b1-4)GlcNAc
# In short: as §1
# [12] = target: Gal4S6S(b1-4)GlcNAc
# In short: as §1
# [13] = target: Gal6S(b1-3)GlcNAc
# In short: as §1
# [14] = target: Gal6S(b1-3)GlcNAc6S
# In short: as §1
# [15] = target: Gal6S(b1-4)Glc
# In short: as §1
# [16] = target: Gal6S(b1-4)Glc6S
# In short: as §1
# [17] = target: Gal6S(b1-4)GlcNAc
# In short: as §1
# [18] = target: Gal6S(b1-4)GlcNAc6S
# In short: as §1
# [19] = target: GalNAc(a1-3)Gal
# In short: as §1
# [20] = target: GalNAc(a1-3)GalNAc
# In short: as §1
# [21] = target: GalNAc(a1-3)GalNAc(b1-3)Gal(a1-4)Gal(b1-4)Glc
# In short: as §1
# [22] = target: GalNAc(a1-3)GalNAc(b1-3)Gal(a1-4)Gal(b1-4)GlcNAc
# In short: as §1
# [23] = target: GalNAc(b1-3)Gal
# In short: as §1
# [24] = target: GalNAc(b1-3)Gal(a1-4)Gal(b1-4)GlcNAc
# In short: as §1
# [25] = target: GalNAc(b1-3)Gal(a1-4)Gal(b1-4)GlcNAc(b1-3)Gal(b1-4)Glc
# In short: as §1
# [26] = target: GalNAc(b1-3)Gal(a1-6)Gal(b1-4)Glc
# In short: as §1
# [27] = target: GalNAc(b1-3)GalNAc
# In short: as §1
# [28] = target: GalNAc(b1-4)Gal(b1-4)Glc
# In short: as §1
# [29] = target: GalNAc(b1-4)GlcNAc
# In short: as §1
# [30] = target: GalNAc(b1-4)GlcNAc(b1-2)Man(a1-3)[GalNAc(b1-4)GlcNAc(b1-2)Man(a1-6)]Man(b1-4)GlcNAc(b1-4)GlcNAc
# In short: as §1
binder,measurement,setting,value
"NanH (Corynebacterium diphtheriae), C6JSW6 (protein) MYSSNRTYSRAILGLSAVLTLSFTSLVAPVNAEEPETVVPATAELEGEVAATLPSAETGLLDAAPPKPVARGAAGDLQLPAVNEKEVFEEGRVIRAPEPDQSRCYRIPALVTAKNGDLLLAFDNRYGGGDGAKTWCRDAPYENMKRINRQNMQTDIQLYRSVDNGQSFEDFGYIAQGTADVRELSYTDPALVTDRTTGKIFAFFVRAYDYRVGQSSAGFNEGDVEAEIQKRDVQDTVVVESLDGGQTWGNMRLLSALTAKVSSISTGDTIFDGRGRFVTSGAGIQLQYGEHAGRLIVPISVDIDPKDSAKFINLAIYSDDHGQTWQAGIGTAGGAGFSGDVSKIVELSDGRLMMSSKDNDKPRWVSYSEDQGENWSTPKRKIIAPPQHPEKHNTGINVGLIRAYPNAPENSAAARVLLYSAPIDQRYSHKHTEDGRNNGWVMGSCDDGKTWSFGRQIEKNRFQYSSMTVMSDGNIGMVYESGDFSTGMNLKFAKFNMAWLGADCHSNEALGLTGDIDKEIVEAQEKAAEATKEAQEAAEKVQKLTEELAAARKENDELKNQVKGFKEAVGDLANEAEDLADKVFKLETAVTEAKEKATVAEKAASDAVTQLQKAESIAEEQKAKAESAAAEAQALREKLERLEGSILTVKENPEAEEIADLSSTAKDAADAARRAATDANGALSGQKQDEEKPAMGLMGILKVLAGIIPLVAIIATIFQTFRLPFNIPGMR",glycan array binding signal (z-score),[1],0.183
same,glycan array binding signal (z-score),[2],-1.3
same,glycan array binding signal (z-score),[3],-0.269
same,glycan array binding signal (z-score),[4],0.095
same,glycan array binding signal (z-score),[5],0.961
same,glycan array binding signal (z-score),[6],-0.457
same,glycan array binding signal (z-score),[7],-0.594
same,glycan array binding signal (z-score),[8],-0.482
same,glycan array binding signal (z-score),[9],-1.03
same,glycan array binding signal (z-score),[10],-0.789
same,glycan array binding signal (z-score),[11],-0.899
same,glycan array binding signal (z-score),[12],-0.823
same,glycan array binding signal (z-score),[13],-0.551
same,glycan array binding signal (z-score),[14],-0.653
same,glycan array binding signal (z-score),[15],1.75
same,glycan array binding signal (z-score),[16],-1.68
same,glycan array binding signal (z-score),[17],2.1
same,glycan array binding signal (z-score),[18],1.98
same,glycan array binding signal (z-score),[19],0.548
same,glycan array binding signal (z-score),[20],0.005
same,glycan array binding signal (z-score),[21],0.199
same,glycan array binding signal (z-score),[22],-0.537
same,glycan array binding signal (z-score),[23],-1.91
same,glycan array binding signal (z-score),[24],-0.371
same,glycan array binding signal (z-score),[25],-0.502
same,glycan array binding signal (z-score),[26],0.909
same,glycan array binding signal (z-score),[27],-0.064
same,glycan array binding signal (z-score),[28],-1.05
same,glycan array binding signal (z-score),[29],-0.431
same,glycan array binding signal (z-score),[30],3.38

# Looked up one by one from the list above:
binder,measurement,setting,value
"NanH (Corynebacterium diphtheriae), C6JSW6 (protein) MYSSNRTYSRAILGLSAVLTLSFTSLVAPVNAEEPETVVPATAELEGEVAATLPSAETGLLDAAPPKPVARGAAGDLQLPAVNEKEVFEEGRVIRAPEPDQSRCYRIPALVTAKNGDLLLAFDNRYGGGDGAKTWCRDAPYENMKRINRQNMQTDIQLYRSVDNGQSFEDFGYIAQGTADVRELSYTDPALVTDRTTGKIFAFFVRAYDYRVGQSSAGFNEGDVEAEIQKRDVQDTVVVESLDGGQTWGNMRLLSALTAKVSSISTGDTIFDGRGRFVTSGAGIQLQYGEHAGRLIVPISVDIDPKDSAKFINLAIYSDDHGQTWQAGIGTAGGAGFSGDVSKIVELSDGRLMMSSKDNDKPRWVSYSEDQGENWSTPKRKIIAPPQHPEKHNTGINVGLIRAYPNAPENSAAARVLLYSAPIDQRYSHKHTEDGRNNGWVMGSCDDGKTWSFGRQIEKNRFQYSSMTVMSDGNIGMVYESGDFSTGMNLKFAKFNMAWLGADCHSNEALGLTGDIDKEIVEAQEKAAEATKEAQEAAEKVQKLTEELAAARKENDELKNQVKGFKEAVGDLANEAEDLADKVFKLETAVTEAKEKATVAEKAASDAVTQLQKAESIAEEQKAKAESAAAEAQALREKLERLEGSILTVKENPEAEEIADLSSTAKDAADAARRAATDANGALSGQKQDEEKPAMGLMGILKVLAGIIPLVAIIATIFQTFRLPFNIPGMR",glycan array binding signal (z-score),[30],3.38
same,glycan array binding signal (z-score),[14],-0.653
